Laboratory results taken from PMC7905166.
No constants are given. Whether binding was seen depends on the method and setting. In cells and extracts the contact can be indirect. Some results given as binding are weak or reduced against the parent protein; the word gives no strength.

How the values were obtained:
[1] = target: epidermal growth factor receptor (EGFR) (human (endogenous in human GBM cell lines)) (UniProt P00533); assay: co-IP; endogenous proteins; cells lysed in RIPA buffer with protease inhibitors, lysate precleared with protein A/G beads, primary antibody (anti-SH3KBP1 or anti-EGFR) overnight at 4°C, protein A/G beads 2 h, washed four times with ice cold PBS, immunoblot
[2] = target: SH3-domain kinase binding protein 1 (SH3KBP1) (human (endogenous in human GBM cell lines)) (UniProt Q96B97); assay: as above

| binding [1] | binding [2] | Substance |
| --- | --- | --- |
| binds | – | SH3-domain kinase binding protein 1 (SH3KBP1) (from UniProt Q96B97 1-665) |
| – | binds | epidermal growth factor receptor (EGFR) (from UniProt P00533 25-1210) |
